In PMC7772139:

B1: PAP12/PTAC7 (protein, UniProt Q8VZV9 1-161)
chain: MASFTCSSPSSILPIIDTRSGNLRCTFQSQVSCGIQRDDNGRRVWRRRTLTKKDDMLRYKMQRVPFVEEQVRKIREVGKVMTMDIEQLLLREDNRFEFVNSVAAEATEYVDKNRDEYGGSKKAIFHVLSNRVNDLGFDRPEAYVEADPYKPGPGYLLEYYT
B2: PAP5/PTAC12 (protein, UniProt F4IHY7 1-527)
chain: MASISTTTWLYRGQVCTDSGKSSNCIVQRRVKCGFPLKTLHAGITSRDRSLRHCIKCKKEDGDGDVSEGSKKSEEGFEYVTVERHPYHSYMDSTSGKLEPASGARASIPGEDYWPEGTSSRVRAARAPQPAGESSSFPSYGKNPGSRRKKNRKATEENVTVETNDEVSDSEDSSEEEENDSSDGFVTYKNEFEREEEETGFELDKKLGRPHPFIDPTKKKQIEKTLTSDESWWNWRKPEKEQWSRWQRRRPDVETVFLKAMAETGQVKLYGEEPTLTETSLYRARRHLFKEERLQAERERLAKEGPMAFYSEWVKAWKRDTSREAVQKHFEETGEDENTQLIEMFSHQTDREYRIMMGTDIRIKRDPLAMRMREDQIKQIWGGDPVYPTINYIQDPNAVMDFRGPDFHEPTPNMLSYLKENGKVISREMHEALLTKEKTEQLEVPDMDDAMAQAVDIGENDDDEDDADVEKDDEKVPRNWSVLKETPELRTAKPKPKKEGRMSLDEAVDDAENLTDFLMDFEEETDP
B3: PAP7/PTAC14 (protein, UniProt Q84JF5 1-483)
chain: MASSVSLQFLTNTFISKPQGFCNGIVSAPRPRSNLLRDRQNGVRPIKVASIETQPFPLFQSPASEESSSSELETADPDFYKIGYVRSVRAYGVEFKEGPDGFGVYASKDIEPRRRARVIMEIPLELMITIRQKHPWMFFPDIVPIGHPIFDIINSTDPEIDWDIRLACLLLFSFDRDDHFWRLYGDFLPAADECSSLLLATEEDLAELQDPDLVSTIRQQQKRILDFWEKNWHSGVPLKIKRLAEDPERFIWAVSMAQTRCISMQTRVGALVQELNMMIPYADMLNHSFEPNCFLHWRPKDRMLEVMSNAGQDIKKGEEMTINYMPGQKNNMLMERYGFSTPVNPWDAIKFSGDSRIHLNSFLSVFNIYGLPEEYYHDSELSRGDTFVDGAVIAAARTLPTWSDIDLPPIPSAERKAVKELQDECRKMLAEYPTTAEQDQKLLDSMSEARTTFATAVKYRMHRKMFIGKIIKALDIYQERLLY
B4: PAP5/PTAC12 lacking the N-terminal transit peptide, His fusion (protein, UniProt F4IHY7 31-527)
chain: VKCGFPLKTLHAGITSRDRSLRHCIKCKKEDGDGDVSEGSKKSEEGFEYVTVERHPYHSYMDSTSGKLEPASGARASIPGEDYWPEGTSSRVRAARAPQPAGESSSFPSYGKNPGSRRKKNRKATEENVTVETNDEVSDSEDSSEEEENDSSDGFVTYKNEFEREEEETGFELDKKLGRPHPFIDPTKKKQIEKTLTSDESWWNWRKPEKEQWSRWQRRRPDVETVFLKAMAETGQVKLYGEEPTLTETSLYRARRHLFKEERLQAERERLAKEGPMAFYSEWVKAWKRDTSREAVQKHFEETGEDENTQLIEMFSHQTDREYRIMMGTDIRIKRDPLAMRMREDQIKQIWGGDPVYPTINYIQDPNAVMDFRGPDFHEPTPNMLSYLKENGKVISREMHEALLTKEKTEQLEVPDMDDAMAQAVDIGENDDDEDDADVEKDDEKVPRNWSVLKETPELRTAKPKPKKEGRMSLDEAVDDAENLTDFLMDFEEETDP
B5: PAP7/PTAC14 lacking the N-terminal transit peptide, His fusion (protein, UniProt Q84JF5 63-483)
chain: ASEESSSSELETADPDFYKIGYVRSVRAYGVEFKEGPDGFGVYASKDIEPRRRARVIMEIPLELMITIRQKHPWMFFPDIVPIGHPIFDIINSTDPEIDWDIRLACLLLFSFDRDDHFWRLYGDFLPAADECSSLLLATEEDLAELQDPDLVSTIRQQQKRILDFWEKNWHSGVPLKIKRLAEDPERFIWAVSMAQTRCISMQTRVGALVQELNMMIPYADMLNHSFEPNCFLHWRPKDRMLEVMSNAGQDIKKGEEMTINYMPGQKNNMLMERYGFSTPVNPWDAIKFSGDSRIHLNSFLSVFNIYGLPEEYYHDSELSRGDTFVDGAVIAAARTLPTWSDIDLPPIPSAERKAVKELQDECRKMLAEYPTTAEQDQKLLDSMSEARTTFATAVKYRMHRKMFIGKIIKALDIYQERLLY

Columns and labels:
[1] = molecular target: SL1 NT (N-terminal of mature SL1) (Arabidopsis thaliana); assay: two-hybrid; SL1 truncations (CTP, NT, MTERF, CT, mature protein) against SL1, PAP12/PTAC7, PAP5/PTAC12 and PAP7/PTAC14; which side was bait is not stated; yeast strain Y2H Gold; dropout media as for a1
[2] = molecular target: SL1 CT (C-terminal of mature SL1) (Arabidopsis thaliana); assay: as above
[3] = molecular target: SL1 MTERF (mTERF domains) (Arabidopsis thaliana); assay: as above
[4] = molecular target: Seedling Lethal 1 (SL1/mTERF3) (Arabidopsis thaliana); assay: two-hybrid; SL1 as bait (GAL4 DNA binding domain, pGBKT7), PEP complex proteins and chloroplast mTERF proteins as prey (GAL4 activation domain, pGADT7); yeast strain Y2H Gold; growth on SD/-Trp-Leu, SD/-Trp-Leu-His and SD/-Trp-Leu-His-Ade
[5] = molecular target: SL1 lacking the N-terminal transit peptide (GST-SL1; His fusion of SL1) (Arabidopsis thaliana); assay: pull-down; GST-SL1 coupled to glutathione resin, incubated with His fusion proteins; PBS pH 7.4; washed with PBS pH 7.4, 0.5% Triton X-100, 0.5 mM PMSF; bound proteins detected by Western blot with anti-His

Row | Binder | binding [1] | binding [2] | binding [3] | binding [4] | binding [5]
1 | B1 | binds | no binding | no binding | binds | –
2 | B2 | binds | no binding | no binding | binds | –
3 | B3 | binds | no binding | no binding | binds | –
4 | B4 | – | – | – | – | binds
5 | B5 | – | – | – | – | binds

Results are given in words; binding and its absence hold for the method and conditions named. For some assays here: Binding calls can cover weak binding; strength is not graded here. For some assays here: In cells and extracts the contact can be indirect. For some assays here: Tags and fused reporters may be left off the sequences shown.
